Publication PMC8035787
These are yes or no findings as the source states them, for the method shown. In cells and extracts the contact can be indirect. Some entries that bind do so weakly or less than the wild type. Sequences can lack the tags named with a protein.

Sequences of proteins named here, by UniProt entry; tags and fusion partners are left off.
UniProt P35638: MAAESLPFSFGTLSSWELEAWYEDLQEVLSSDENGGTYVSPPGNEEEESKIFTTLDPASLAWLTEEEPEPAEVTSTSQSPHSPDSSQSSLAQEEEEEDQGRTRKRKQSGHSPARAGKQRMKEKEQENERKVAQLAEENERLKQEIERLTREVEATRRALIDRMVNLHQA

Target: T1, Argininosuccinate synthase 1 with Flag tag (ASS1-Flag) (UniProt P00966)
T1 sequence: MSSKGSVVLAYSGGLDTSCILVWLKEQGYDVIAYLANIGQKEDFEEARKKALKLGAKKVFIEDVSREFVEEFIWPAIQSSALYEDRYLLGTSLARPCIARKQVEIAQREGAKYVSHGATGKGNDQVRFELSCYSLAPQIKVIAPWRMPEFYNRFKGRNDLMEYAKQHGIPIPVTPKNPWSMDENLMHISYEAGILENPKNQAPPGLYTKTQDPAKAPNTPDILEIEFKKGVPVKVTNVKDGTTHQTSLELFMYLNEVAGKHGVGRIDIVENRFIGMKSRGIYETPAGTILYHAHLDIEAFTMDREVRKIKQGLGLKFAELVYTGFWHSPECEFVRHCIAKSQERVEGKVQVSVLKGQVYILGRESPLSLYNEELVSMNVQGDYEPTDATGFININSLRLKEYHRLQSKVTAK
Experiment: co-IP; lysates (2 mg/500 ul) of Huh7 cells transfected with ASS1-Flag, precipitated with anti-Flag at 4 °C overnight (Pierce Co-immunoprecipitation Kit); immunoblot with anti-PERK, ATF4 and CHOP; cells with and without induction of ER stress

- binding: binds
Substance: C/EBP homologous protein (CHOP; DNA damage inducible transcript 3) (from UniProt P35638 1-169)
